The species named for this experiment is Cavia porcellus. As to the kind of experiment: tissue or blood. Conditions: Ileum.

The source of these data is ChEMBL document CHEMBL1124645, “Minimum-structure enkephalin analogues incorporating L-tyrosine, D(or L)-phenylalanine, and a diamine spacer” (J Med Chem, 1989).

For the compound `CN1CC[C@]23c4c5ccc(O)c4O[C@H]2[C@@H](O)C=C[C@H]3[C@H]1C5` [MORPHINE], the IC50 (as a rule, the concentration that gives 50% inhibition) was 0.13 nM.
